In all, about 31,000 sequences went through this assay and about 1,400 (4.5%) were called active.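 The calls were made as follows: active = median seed-adjusted z-score above 1 or below -1; inactive = the rest.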 The list shows a part of the results.
Experiment: Novel Modifiers of Survival Motor Neuron (SMN) Protein: Gene Identification via Genome-wide siRNA Screen;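 also: luminescence tracks full-length SMN protein made from the SMN2 reporter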
Conditions: HEK293T SMN2-luciferase reporter, siRNA knockdown, 72 h; actives lie on both sides
Procedure, shortened: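 HEK293T cells stably carrying an SMN2 promoter/splicing cassette–luciferase reporter were reverse-transfected with 1 pmol siRNA per well (druggable-genome library, 3 siRNAs per gene) and grown 72 h at 37 °C. Luminescence, normalized to negative-control siRNA and log10-transformed, was scored as MAD.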
With CCUUGUUCAGUCUAGAGGATT against CLCN6 the median seed-adjusted z-score was inactive: -0.136. In the case of AGACACCUCGGAUAACGAATT against HOXC10, the median seed-adjusted z-score is reported as inactive: 0.000966. With CCAGCUUAGUUCAAUAUGATT against GABRA4 the median seed-adjusted z-score was inactive: 0.549. With GCUCGUAGUUGGGAUAACATT against FRAP1 the median seed-adjusted z-score was active: -1.02. In the case of UGACCAAGUUUGAGGCUAATT against NAT9, the median seed-adjusted z-score is reported as inactive: -0.657. In the case of GGCGGGAUGUGAUGACUAUTT against STYK1, the median seed-adjusted z-score is reported as inactive: 0.106. For GCAAUUAAUUCACUAAGCUTT against HS3ST3B1, the median seed-adjusted z-score was inactive: 0.937. In the case of GGACUCUUGUAGAUAAUGATT against RSPRY1, the median seed-adjusted z-score is reported as inactive: 0.0814. In the case of GAACUUUCCUAGGUGAUUATT against PEMT, the median seed-adjusted z-score is reported as inactive: 0.0218. For AAUUAAAGGAGAUCCACUATT against ALDH3B2, the median seed-adjusted z-score was inactive: 0.171. With GGAUAGAAUAUGAUACCUUTT against FH the median seed-adjusted z-score was inactive: 0.182. With GGAGUUCGAUGAGACAACATT against FABP3 the median seed-adjusted z-score was inactive: -0.0786. With GCAGCAAACUGACGGAGAATT against PCTK3 the median seed-adjusted z-score was inactive: 0. For CCAGAUCAUCUGGACCAUATT against PDCD2, the median seed-adjusted z-score was inactive: -0.232. For GCUCCUCAGUUGAUCAAGATT against DKC1, the median seed-adjusted z-score was inactive: -0.203. With GCCCAGCAGAUAAUCCAUUTT against GTF2H4 the median seed-adjusted z-score was inactive: -0.261. In the case of CAACAGAUGUUAGCCCUUUTT against ZNF75D, the median seed-adjusted z-score is reported as inactive: 0. For GAGAAGCAGCAGUACAUGATT against HMG20B, the median seed-adjusted z-score was inactive: 0.231. In the case of CGAUGUGGUUCGAGGCUAUTT against B9D1, the median seed-adjusted z-score is reported as inactive: -0.161. With CCAUCUACGUCAUCUAUAATT against SLC6A2 the median seed-adjusted z-score was inactive: 0. In the case of GGAUAGGUGCCUUUCGUCATT against TLR3, the median seed-adjusted z-score is reported as inactive: 0.0615. For UGAUCUUCAUCGUCAAGGATT against MCM5, the median seed-adjusted z-score was inactive: 0.126. For CCAAGUCAUUCUCACCUAATT against ATP6V1G2, the median seed-adjusted z-score was inactive: -0.664. With GAACCUCCUUCGGGAUAAATT against CAB39L the median seed-adjusted z-score was inactive: 0. In the case of GGGUAAUCCUCCCAAAUCATT against CDH2, the median seed-adjusted z-score is reported as inactive: -0.235. In the case of GAGUUGCAAUUGUCAUAUATT against ADAM20, the median seed-adjusted z-score is reported as inactive: 0.0167. For GGAGGCUUCGAUGAAGAAATT against ASIP, the median seed-adjusted z-score was inactive: -0.23. With GCAGAAGUGGGAGCGAAAATT against PRSS23 the median seed-adjusted z-score was inactive: -0.77. For GGGCGAAUACGUGACGAUATT against BEST4, the median seed-adjusted z-score was inactive: -0.207. In the case of GGACCUGCAUAUGAAAGUATT against PCDH8, the median seed-adjusted z-score is reported as active: -1.03.

Reference: PubChem BioAssay AID1347426 (Functional Genomics Laboratory (NCATS/FGL), 2020)
